Some of the results follow. Repeats are few or missing, and single values can be far off.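 Imaging used 1,536-well plates; nuclei positive for cleaved PARP by antibody were divided by total DNA-stained nuclei to yield the apoptosis fraction. Doses for screening kept most cells viable, and cell lines differ markedly in resting and induced cleaved-PARP levels.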
System: CBRC034 (line from a melanoma biopsy)
Test: cleaved PARP positive nuclei fraction relative to DMSO control; melanoma cells; higher = more apoptosis
Settings: library dose: low library concentration; 72 h

First: Cc1cc(Nc2cc(N3CCN(C)CC3)nc(Sc3ccc(NC(=O)C4CC4)cc3)n2)n[nH]1 [Tozasertib] + Cc1cc(Nc2cc(N3CCN(C)CC3)nc(/C=C/c3ccccc3)n2)n[nH]1 [ENMD2076] (first compound 0.006 µM, partner dose 0.04 µM)
Second: Cc1cn(-c2cc(NC(=O)c3ccc(C)c(Nc4nccc(-c5cccnc5)n4)c3)cc(C(F)(F)F)c2)cn1 [nilotinib] + CO[C@H]1C[C@@H]2CC[C@@H](C)[C@@](O)(O2)C(=O)C(=O)N2CCCC[C@H]2C(=O)O[C@H]([C@H](C)C[C@@H]2CC[C@@H](OCCO)[C@H](OC)C2)CC(=O)[C@H](C)/C=C(\C)[C@@H](O)[C@@H](OC)C(=O)[C@H](C)C[C@H](C)/C=C/C=C/C=C/1C [everolimus] (first compound 0.2 µM, partner dose 0.02 µM)
The “cleaved PARP positive nuclei fraction” value of the first is higher: 89% for the first, 37.9% for the second.

Compared with `O=C(Nc1cc(C(F)(F)F)cc(C(F)(F)F)c1)c1cc(Cl)ccc1O` + C[C@]1(c2nc3c(C(N)=O)cccc3[nH]2)CCCN1 [Veliparib] (first compound 0.016 µM, partner dose 1.4 µM), `Cc1cc(Nc2cc(N3CCN(C)CC3)nc(Sc3ccc(NC(=O)C4CC4)cc3)n2)n[nH]1` [Tozasertib] + N#CC[C@H](C1CCCC1)n1cc(-c2ncnc3[nH]ccc23)cn1 [ruxolitinib] (first compound 0.006 µM, partner dose 1 µM) is higher in “cleaved PARP positive nuclei fraction” value: 64% for the first, 181% for the second.

First: O=C(Nc1cc(C(F)(F)F)cc(C(F)(F)F)c1)c1cc(Cl)ccc1O + Nc1ncn([C@H]2C[C@H](O)[C@@H](CO)O2)c(=O)n1 [decitabine] (first compound 0.016 µM, partner dose 0.1 µM)
Second: O=C(/C=C/c1cccnc1)NCCCCC1CCN(C(=O)c2ccccc2)CC1 + C#Cc1cccc(Nc2ncnc3cc(OCCOC)c(OCCOC)cc23)c1 [erlotinib] (first compound 0.01 µM, partner dose 0.8 µM)
The “cleaved PARP positive nuclei fraction” value of the first is lower: 47.8% for the first, 1310% for the second.

Compared with `CC[C@]1(O)C[C@H]2CN(CCc3c([nH]c4ccccc34)[C@@](C(=O)OC)(c3cc4c(cc3OC)N(C=O)[C@H]3[C@@](O)(C(=O)OC)[C@H](OC(C)=O)[C@]5(CC)C=CCN6CC[C@]43[C@@H]65)C2)C1` [vincristine] + Cn1c(Nc2ccc(C(F)(F)F)cc2)nc2cc(Oc3ccnc(-c4ncc(C(F)(F)F)[nH]4)c3)ccc21 [CHIR265] (first compound 0.0001 µM, partner dose 0.08 µM), `O=C(/C=C/c1cccnc1)NCCCCC1CCN(C(=O)c2ccccc2)CC1` + CO[C@H]1C[C@@H]2CC[C@@H](C)[C@@](O)(O2)C(=O)C(=O)N2CCCC[C@H]2C(=O)O[C@H]([C@H](C)C[C@@H]2CC[C@@H](OCCO)[C@H](OC)C2)CC(=O)[C@H](C)/C=C(\C)[C@@H](O)[C@@H](OC)C(=O)[C@H](C)C[C@H](C)/C=C/C=C/C=C/1C [everolimus] (first compound 0.01 µM, partner dose 0.02 µM) is higher in “cleaved PARP positive nuclei fraction” value: 126% for the first, 2070% for the second.

Compared with `CC[C@]1(O)C[C@H]2CN(CCc3c([nH]c4ccccc34)[C@@](C(=O)OC)(c3cc4c(cc3OC)N(C=O)[C@H]3[C@@](O)(C(=O)OC)[C@H](OC(C)=O)[C@]5(CC)C=CCN6CC[C@]43[C@@H]65)C2)C1` [vincristine] + C=C(c1ccc(C(=O)O)cc1)c1cc2c(cc1C)C(C)(C)CCC2(C)C [Bexarotene] (first compound 0.0001 µM, partner dose 2 µM), `O=c1[nH]nc(Sc2ncc([N+](=O)[O-])s2)n1-c1ccc2c(c1)OCCO2` + OCc1c[nH]c2ccccc12 [Indole-3-carbinol] (first compound 0.2 µM, partner dose 0.8 µM) is higher in “cleaved PARP positive nuclei fraction” value: 94.6% for the first, 140% for the second.

Going from `O=C(Nc1cc(C(F)(F)F)cc(C(F)(F)F)c1)c1cc(Cl)ccc1O` + Cn1c(Nc2ccc(C(F)(F)F)cc2)nc2cc(Oc3ccnc(-c4ncc(C(F)(F)F)[nH]4)c3)ccc21 [CHIR265] (first compound 0.016 µM, partner dose 0.08 µM) to `O=c1[nH]nc(Sc2ncc([N+](=O)[O-])s2)n1-c1ccc2c(c1)OCCO2` + CS(=O)(=O)CCNCc1ccc(-c2ccc3ncnc(Nc4ccc(OCc5cccc(F)c5)c(Cl)c4)c3c2)o1 [lapatinib] (first compound 0.2 µM, partner dose 0.8 µM), the “cleaved PARP positive nuclei fraction” value falls from 164% to 87.4%.

Source: the supplement of paper PMC4604168 (melanoma cell lines)
